Assay results published in US9328123B2, “Rotenone derivatives and a use thereof” (priority 2012, dated 2016).
Entries after “also recorded” stand apart in the source; their conditions may differ. For at least one compound, name, drawing or mass did not settle the structure.

The chains behind the UniProt entries cited, without tags or fusion partners. Where a name states a change or a piece, a line headed by the entry shows the natural chain unless it says otherwise.
UniProt P00591: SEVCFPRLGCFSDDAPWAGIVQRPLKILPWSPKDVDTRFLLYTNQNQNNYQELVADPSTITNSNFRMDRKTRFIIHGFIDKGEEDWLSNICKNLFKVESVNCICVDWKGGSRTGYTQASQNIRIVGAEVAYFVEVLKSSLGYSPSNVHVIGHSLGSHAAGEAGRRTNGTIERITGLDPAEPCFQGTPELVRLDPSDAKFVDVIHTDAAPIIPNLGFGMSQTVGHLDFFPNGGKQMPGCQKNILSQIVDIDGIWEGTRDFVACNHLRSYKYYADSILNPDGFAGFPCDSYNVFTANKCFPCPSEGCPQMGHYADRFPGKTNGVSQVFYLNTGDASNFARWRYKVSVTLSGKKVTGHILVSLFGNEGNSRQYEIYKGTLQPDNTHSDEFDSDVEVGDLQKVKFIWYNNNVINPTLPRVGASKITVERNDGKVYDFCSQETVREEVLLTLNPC

Legend:
3T3-L1 preadipocytes = assay: Inhibition of differentiation of 3T3-L1 preadipocyte to adipocyte (oil red O staining); type: cell-based, mouse; settings: 3T3-L1 preadipocytes, 2, 0.2, 0.02 uM, Day 0-Day 8
Experimental: To investigate inhibition effect on adipocyte differentiation in 3T3-L1 preadipocytes, mouse embryo fibroblasts were cultured in DMEM supplemented with 10% FBS to confluency. Two days later (Day 0), the cells were stimulated for the differentiation in DMEM, the differentiation medium supplemented with 10% FBS, 0.5 mM 3-isobutyl-1-methyl-xanthine, […], and […] (Day 2). For the next 6 days, the cells were cultured in DMEM supplemented with 10% FBS and 2 mM insulin (Day 8), followed by further culture in DMEM supplemented with 10% FBS for […] (Day 8). Every medium was added with 100 IU/ml of penicillin and […] of streptomycin. The cells were cultured in the presence of 95% air and 5% CO2. During the whole culture period (Day 0˜Day 8), the treatment of the rotenoisin A and B (2, 0.2, 0.02 uM) of the present invention was performed by the conventional method known to those in the art (Liu, Q.; Shin, E.; Ahn, M. J.; Hwang, B. Y.; Lee, M. K. Nat. Prod. Sci. 2011, 17, 212.) with slight modification. […]
Particularly, intracellular fat lump was stained with oil red O. 8 days after the induction of cell differentiation, the cells were washed with […] twice, followed by fixing in 10% formalin for 1 hour at room temperature. […] For quantitative analysis, oil red O was dissolved with isopropyl alcohol, followed by measuring OD500 using an ELISA reader.

pig pancreatic lipase = pig pancreatic lipase (Sus scrofa (Pig), UniProt P00591); assay: Pancreatic lipase inhibiting activity (p-nitrophenylbutyrate hydrolysis); type: biochemical
Experimental: To investigate obesity treating effect of the novel rotenoisin A and B, each represented by formula 2 and formula 3 isolated and purified in <Example 2>, pancreatic lipase inhibiting activity of the same was measured.
Particularly, pancreatic lipase inhibiting activity was measured by the conventional method known to those in the art (Kim, J. H.; Kim, H. J.; Park, H. W.; Youn, S. H.; Choi, D. Y.; Shin, C. S. FEMS Microbiol. Lett. 2007, 276, 93.). To prepare the enzyme buffer, […] (10 units) of pig pancreatic lipase solution (Sigma, St. Louis, Mo.) and 1 mM EDTA (pH 6.8) were mixed with 10 mM MOPS (morpholinepropanesulphonic acid), which was added to […] of tris buffer (100 mM Tris-HCl and 5 mM CaCl2, pH 7.0). Then, […] of the rotenoisin A or B of the present invention was mixed with the prepared enzyme buffer at the experimental concentration. […] 20 mL of substrate solution containing 20 mM p-nitrophenylbutyrate dissolved in dimethyl formaide was added to the enzyme buffer, followed by culture for 15 minutes at 37° C. that was the temperature adequate for enzyme reaction. Pancreatic lipase activity was measured by measuring the hydrolysis of p-nitrophenylbutyrate into p-nitrophenol using an ELISA reader (Infinite F200; Tecan Austria GmBH, Grodig, Austria).

Row | Compound | inhibition of differentiation of 3T3-L1 preadipocytes (3T3-L1 preadipocytes) | pancreatic lipase inhibiting activity compared with rotenone (pig pancreatic lipase)
1 | C=C(C)[C@H]1Cc2c(ccc3c2O[C@@H]2COc4cc(OC)c(OC)cc4[C@@H]2[C@]32CC3O[C@]3(O)[C@@H](O)O2)O1 (stereo partly drawn) [rotenoisin B] | significantly inhibited the differentiation of 3T3-L1 preadipocytes; also recorded: excellent adipocyte differentiation inhibiting activity | 
2 | C=C(C)[C@H]1Cc2c(ccc3c2O[C@@H]2COc4cc(OC)c(OC)cc4[C@@H]2C32CO2)O1 (stereo partly drawn) [rotenoisin A] | significantly inhibited the differentiation of 3T3-L1 preadipocytes; also recorded: excellent adipocyte differentiation inhibiting activity | significantly higher pancreatic lipase inhibiting activity than the conventional rotenone; also recorded: greater pancreatic lipase inhibiting activity than the conventional rotenone
